Data published in patent US9351929B2, “Antibiotic formulations, unit doses, kits, and methods” (Bayer Intellectual Property GMBH, priority 2005, dated 2016).
Structures can show the parent of a compound that is named as a salt. Some results were stated once for a whole list of compounds, not compound by compound.

Assay: Aerosol particle size distribution by laser diffraction
Type: physicochemical
Conditions: 120 mg/ml in water, fill volume 5 ml

CN[C@H](CC(C)C)C(=O)N[C@H]1C(=O)N[C@@H](CC(N)=O)C(=O)N[C@H]2C(=O)N[C@H]3C(=O)N[C@H](C(=O)N[C@H](C(=O)O)c4cc(O)cc(O)c4-c4cc3ccc4O)[C@H](O)c3ccc(c(Cl)c3)Oc3cc2cc(c3O[C@@H]2O[C@H](CO)[C@@H](O)[C@H](O)[C@H]2O[C@H]2C[C@](C)(N)[C@H](O)[C@H](C)O2)Oc2ccc(cc2Cl)[C@H]1O [Vancomycin HCl, vancomycin hydrochloride]
volume median diameter of aerosol: 2-3 μm
